According to the supplement of paper PMC11732987, “Enantioselective OTUD7B fragment discovery through chemoproteomics screening and high-throughput optimisation” (Communications Chemistry, 2025):
The list shows a part of the results. The data scatter; read single values as rough.

By UniProt entry, the sequences of proteins in these tests, tags left out. Where a name states a change or a piece, a line headed by the entry shows the natural chain unless it says otherwise. Residues count along the entry.
UniProt P05091, 53-78: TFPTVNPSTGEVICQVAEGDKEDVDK
UniProt P49419, 475-500: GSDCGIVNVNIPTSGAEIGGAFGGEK
UniProt Q4VCS5: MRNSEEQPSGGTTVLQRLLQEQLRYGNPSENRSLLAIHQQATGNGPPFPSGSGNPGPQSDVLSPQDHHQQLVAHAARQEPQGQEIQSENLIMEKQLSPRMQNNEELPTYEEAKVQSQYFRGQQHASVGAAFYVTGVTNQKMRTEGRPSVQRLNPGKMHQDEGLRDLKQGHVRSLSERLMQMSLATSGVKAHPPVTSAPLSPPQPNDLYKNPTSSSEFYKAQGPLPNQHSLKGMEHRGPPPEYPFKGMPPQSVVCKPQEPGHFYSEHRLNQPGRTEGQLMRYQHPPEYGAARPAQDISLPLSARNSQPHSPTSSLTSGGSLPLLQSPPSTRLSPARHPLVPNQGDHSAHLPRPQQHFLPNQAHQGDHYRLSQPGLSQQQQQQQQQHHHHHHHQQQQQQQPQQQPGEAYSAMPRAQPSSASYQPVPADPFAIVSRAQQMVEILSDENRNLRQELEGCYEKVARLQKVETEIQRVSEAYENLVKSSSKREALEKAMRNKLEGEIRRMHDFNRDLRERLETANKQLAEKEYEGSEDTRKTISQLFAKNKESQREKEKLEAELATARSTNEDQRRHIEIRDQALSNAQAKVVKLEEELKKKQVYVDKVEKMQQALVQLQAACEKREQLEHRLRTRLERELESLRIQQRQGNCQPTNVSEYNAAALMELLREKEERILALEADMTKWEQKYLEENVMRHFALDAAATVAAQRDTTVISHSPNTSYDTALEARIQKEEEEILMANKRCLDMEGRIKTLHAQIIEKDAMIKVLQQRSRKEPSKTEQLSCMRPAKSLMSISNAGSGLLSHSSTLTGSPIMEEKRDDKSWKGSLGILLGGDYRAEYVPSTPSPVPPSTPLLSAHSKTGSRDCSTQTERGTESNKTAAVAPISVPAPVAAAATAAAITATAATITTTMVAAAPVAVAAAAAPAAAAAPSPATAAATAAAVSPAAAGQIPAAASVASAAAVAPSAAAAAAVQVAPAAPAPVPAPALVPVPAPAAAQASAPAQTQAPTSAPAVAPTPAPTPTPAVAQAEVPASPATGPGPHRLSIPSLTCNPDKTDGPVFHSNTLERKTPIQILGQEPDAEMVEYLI
UniProt Q99996: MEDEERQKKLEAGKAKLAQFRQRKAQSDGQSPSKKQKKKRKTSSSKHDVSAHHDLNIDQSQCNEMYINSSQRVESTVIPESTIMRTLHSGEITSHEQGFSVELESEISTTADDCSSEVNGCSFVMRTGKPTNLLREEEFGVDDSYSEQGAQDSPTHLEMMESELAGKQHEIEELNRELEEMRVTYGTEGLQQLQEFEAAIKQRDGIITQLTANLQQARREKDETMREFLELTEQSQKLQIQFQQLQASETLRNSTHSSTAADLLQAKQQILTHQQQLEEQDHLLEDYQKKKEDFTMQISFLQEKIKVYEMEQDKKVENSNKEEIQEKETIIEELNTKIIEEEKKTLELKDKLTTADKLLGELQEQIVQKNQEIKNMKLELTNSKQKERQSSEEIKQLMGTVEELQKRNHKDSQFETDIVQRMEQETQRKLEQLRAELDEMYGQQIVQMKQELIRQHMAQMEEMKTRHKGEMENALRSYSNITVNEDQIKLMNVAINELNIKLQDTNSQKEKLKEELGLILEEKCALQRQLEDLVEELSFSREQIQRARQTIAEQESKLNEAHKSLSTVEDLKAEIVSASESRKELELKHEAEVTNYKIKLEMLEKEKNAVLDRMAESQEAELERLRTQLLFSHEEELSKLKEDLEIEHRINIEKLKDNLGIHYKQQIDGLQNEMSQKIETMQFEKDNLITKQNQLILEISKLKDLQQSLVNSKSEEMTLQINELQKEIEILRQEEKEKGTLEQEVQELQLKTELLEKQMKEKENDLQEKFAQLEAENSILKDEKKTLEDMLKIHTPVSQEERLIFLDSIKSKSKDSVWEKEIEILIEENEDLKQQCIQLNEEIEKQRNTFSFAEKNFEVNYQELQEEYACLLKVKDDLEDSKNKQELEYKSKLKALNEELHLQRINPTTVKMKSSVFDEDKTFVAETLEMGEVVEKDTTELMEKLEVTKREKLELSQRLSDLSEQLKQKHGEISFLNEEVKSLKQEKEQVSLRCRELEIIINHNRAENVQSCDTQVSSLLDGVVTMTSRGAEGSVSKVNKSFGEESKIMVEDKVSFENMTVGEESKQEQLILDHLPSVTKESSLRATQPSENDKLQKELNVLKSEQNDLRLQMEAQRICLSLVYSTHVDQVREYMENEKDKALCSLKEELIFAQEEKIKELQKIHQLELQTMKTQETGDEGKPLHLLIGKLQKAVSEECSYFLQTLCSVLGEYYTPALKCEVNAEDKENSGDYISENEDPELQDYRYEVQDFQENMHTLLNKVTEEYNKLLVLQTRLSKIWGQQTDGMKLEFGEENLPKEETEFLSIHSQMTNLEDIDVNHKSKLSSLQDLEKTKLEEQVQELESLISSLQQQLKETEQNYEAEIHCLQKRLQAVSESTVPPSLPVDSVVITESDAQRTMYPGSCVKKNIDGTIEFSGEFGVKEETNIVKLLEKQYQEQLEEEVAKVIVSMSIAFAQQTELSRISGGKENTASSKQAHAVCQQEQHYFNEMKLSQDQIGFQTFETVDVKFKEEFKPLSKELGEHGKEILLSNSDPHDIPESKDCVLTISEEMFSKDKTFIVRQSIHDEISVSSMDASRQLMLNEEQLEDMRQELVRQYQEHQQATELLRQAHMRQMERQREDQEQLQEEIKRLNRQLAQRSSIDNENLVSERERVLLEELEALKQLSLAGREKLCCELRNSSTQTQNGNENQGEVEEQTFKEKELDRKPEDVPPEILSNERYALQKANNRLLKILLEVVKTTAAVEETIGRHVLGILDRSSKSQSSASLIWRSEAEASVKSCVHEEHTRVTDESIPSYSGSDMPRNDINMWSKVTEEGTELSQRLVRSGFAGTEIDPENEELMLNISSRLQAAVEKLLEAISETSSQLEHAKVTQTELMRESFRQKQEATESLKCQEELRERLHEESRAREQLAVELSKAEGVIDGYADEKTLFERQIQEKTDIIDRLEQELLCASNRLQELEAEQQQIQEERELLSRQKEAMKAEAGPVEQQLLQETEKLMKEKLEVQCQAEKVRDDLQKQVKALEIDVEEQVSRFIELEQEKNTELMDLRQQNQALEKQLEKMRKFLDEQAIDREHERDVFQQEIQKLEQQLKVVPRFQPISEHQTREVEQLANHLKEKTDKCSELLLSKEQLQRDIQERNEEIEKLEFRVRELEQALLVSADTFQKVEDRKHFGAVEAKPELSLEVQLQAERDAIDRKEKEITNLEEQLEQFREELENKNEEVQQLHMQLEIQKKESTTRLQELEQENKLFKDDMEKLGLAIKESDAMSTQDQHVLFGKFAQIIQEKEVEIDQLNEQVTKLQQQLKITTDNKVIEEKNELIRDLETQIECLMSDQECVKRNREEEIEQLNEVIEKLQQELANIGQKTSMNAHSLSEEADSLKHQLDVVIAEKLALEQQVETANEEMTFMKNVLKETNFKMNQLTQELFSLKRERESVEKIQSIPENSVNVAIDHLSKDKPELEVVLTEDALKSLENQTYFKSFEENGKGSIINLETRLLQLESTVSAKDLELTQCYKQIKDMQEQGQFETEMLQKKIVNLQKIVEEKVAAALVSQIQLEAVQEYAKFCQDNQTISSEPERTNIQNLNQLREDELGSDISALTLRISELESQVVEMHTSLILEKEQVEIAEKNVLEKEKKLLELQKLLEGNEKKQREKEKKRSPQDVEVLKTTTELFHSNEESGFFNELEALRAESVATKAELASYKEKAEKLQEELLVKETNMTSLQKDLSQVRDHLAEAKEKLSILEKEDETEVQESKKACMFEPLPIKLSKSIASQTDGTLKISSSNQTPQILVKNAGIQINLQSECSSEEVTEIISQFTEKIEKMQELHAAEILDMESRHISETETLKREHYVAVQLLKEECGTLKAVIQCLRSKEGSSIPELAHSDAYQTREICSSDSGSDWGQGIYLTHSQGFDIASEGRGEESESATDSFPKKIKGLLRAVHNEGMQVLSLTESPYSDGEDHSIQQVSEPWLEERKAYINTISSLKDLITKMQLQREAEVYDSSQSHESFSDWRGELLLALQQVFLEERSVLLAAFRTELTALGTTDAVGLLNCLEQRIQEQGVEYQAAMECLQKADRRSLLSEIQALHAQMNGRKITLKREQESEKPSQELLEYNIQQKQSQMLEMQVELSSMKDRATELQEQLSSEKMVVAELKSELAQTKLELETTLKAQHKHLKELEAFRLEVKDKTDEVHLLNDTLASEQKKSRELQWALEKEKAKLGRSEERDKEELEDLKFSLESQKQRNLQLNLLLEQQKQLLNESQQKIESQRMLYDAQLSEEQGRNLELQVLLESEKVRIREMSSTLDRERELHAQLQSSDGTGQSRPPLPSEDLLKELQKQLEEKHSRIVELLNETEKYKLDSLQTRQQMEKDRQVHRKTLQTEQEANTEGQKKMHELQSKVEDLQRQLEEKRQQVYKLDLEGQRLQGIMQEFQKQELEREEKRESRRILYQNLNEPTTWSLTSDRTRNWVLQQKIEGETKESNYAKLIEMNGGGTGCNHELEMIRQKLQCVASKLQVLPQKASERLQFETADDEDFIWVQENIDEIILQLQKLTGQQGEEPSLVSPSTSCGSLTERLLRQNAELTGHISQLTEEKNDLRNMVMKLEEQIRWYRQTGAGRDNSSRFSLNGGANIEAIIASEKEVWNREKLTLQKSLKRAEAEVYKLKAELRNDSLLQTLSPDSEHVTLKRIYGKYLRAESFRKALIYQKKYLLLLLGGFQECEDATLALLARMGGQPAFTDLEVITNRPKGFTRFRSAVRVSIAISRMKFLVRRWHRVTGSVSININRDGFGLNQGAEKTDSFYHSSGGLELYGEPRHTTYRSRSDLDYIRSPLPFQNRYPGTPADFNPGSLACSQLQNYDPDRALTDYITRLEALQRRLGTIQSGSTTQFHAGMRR
UniProt Q6NS38: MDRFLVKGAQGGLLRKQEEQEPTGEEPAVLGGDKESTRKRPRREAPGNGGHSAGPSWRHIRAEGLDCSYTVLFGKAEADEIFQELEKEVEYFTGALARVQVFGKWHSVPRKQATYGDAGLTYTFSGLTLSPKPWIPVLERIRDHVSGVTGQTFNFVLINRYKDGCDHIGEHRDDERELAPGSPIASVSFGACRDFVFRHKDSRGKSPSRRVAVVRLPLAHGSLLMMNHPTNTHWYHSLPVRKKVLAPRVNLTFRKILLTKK
UniProt P30837: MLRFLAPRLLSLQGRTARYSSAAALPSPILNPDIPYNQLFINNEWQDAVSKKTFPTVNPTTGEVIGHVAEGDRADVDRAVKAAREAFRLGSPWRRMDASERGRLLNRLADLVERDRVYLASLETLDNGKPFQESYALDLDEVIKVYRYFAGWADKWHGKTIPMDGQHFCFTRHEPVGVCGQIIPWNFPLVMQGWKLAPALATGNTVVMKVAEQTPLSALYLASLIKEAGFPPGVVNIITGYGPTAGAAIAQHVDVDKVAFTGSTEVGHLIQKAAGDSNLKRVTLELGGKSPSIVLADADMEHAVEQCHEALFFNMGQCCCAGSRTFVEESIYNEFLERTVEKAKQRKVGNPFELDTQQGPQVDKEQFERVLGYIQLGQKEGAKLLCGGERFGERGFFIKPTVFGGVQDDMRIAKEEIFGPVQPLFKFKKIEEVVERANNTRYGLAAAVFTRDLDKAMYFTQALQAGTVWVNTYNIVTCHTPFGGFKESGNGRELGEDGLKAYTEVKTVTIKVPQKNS
UniProt P35611: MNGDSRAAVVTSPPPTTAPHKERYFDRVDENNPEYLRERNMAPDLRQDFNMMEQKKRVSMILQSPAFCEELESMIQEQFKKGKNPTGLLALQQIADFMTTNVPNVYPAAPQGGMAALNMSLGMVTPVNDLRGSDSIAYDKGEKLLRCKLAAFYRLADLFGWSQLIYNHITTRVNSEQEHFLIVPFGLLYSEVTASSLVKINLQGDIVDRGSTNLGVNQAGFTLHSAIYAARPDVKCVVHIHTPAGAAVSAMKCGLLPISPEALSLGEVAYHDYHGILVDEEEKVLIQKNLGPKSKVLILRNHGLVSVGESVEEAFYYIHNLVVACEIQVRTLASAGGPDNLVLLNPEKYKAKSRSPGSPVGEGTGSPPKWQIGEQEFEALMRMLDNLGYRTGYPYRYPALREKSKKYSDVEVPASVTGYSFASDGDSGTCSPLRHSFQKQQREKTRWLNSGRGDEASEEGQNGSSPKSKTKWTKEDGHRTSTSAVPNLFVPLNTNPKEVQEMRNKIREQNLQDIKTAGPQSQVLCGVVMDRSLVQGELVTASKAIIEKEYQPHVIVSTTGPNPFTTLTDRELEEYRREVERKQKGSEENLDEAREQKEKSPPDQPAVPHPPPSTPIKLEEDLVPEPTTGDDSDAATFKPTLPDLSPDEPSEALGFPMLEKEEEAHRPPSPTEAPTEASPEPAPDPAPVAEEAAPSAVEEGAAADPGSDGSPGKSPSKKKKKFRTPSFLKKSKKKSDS
UniProt Q02952, 1123-1148: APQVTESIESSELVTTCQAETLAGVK

Experiments:
[1] = compound: ClCC(=O)N[C@@H]1CCCc2ccccc12; assay: log2 mean competition ratio of IA-DTB cysteine labelling (DMSO/compound) (log2 ratio); higher = stronger cysteine engagement by compound; conditions: treatment time: 4 h, cell line lysate: HEK293T
Procedure: (§1)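 IA-DTB competitive cysteine chemoproteomics in HEK293T RIPA lysate. Lysates were treated with compound 29 or 30 at 50 or 200 µM for 4 h, then IA-DTB (500 µM, 1 h), trypsin-digested, NeutrAvidin-enriched and analysed by diaPASEF. Competition ratio = intensity DMSO / intensity compound (n=4 treated, n=64 DMSO); binding: mean log2 CR ≥ 1 and p ≤ 0.05 plus QC filters. Target is the cysteine site.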

[2] = compound: ClCC(=O)N[C@H]1CCCc2ccccc12; assay: as above; conditions: treatment time: 4 h, cell line lysate: HEK293T
Procedure: as §1

Target	log2 mean competition ratio ([1]; 50 µM)	log2 mean competition ratio ([1]; 200 µM)	log2 mean competition ratio ([2]; 50 µM)	log2 mean competition ratio ([2]; 200 µM)
ANK3 C307 (UniProt Q12955)	0.299	-0.0514		
ACOT8 C302 (UniProt O14734)	-0.303	0.336		
AHNAK C5502 (UniProt Q09666)	-0.135	-0.116	0.0061	-0.061
ADD2 C177 (UniProt P35612)	-0.142	-0.16		
AGO2 C717	-0.299	0.334	-0.19	0.1
ALDH2 C66 (UniProt P05091)	-0.397	-0.084	-0.0367	-0.277
ALDH4A1 C315 (UniProt P30038)	-0.152	-0.0218	-0.127	0.171
ALDH7A1 C478 (UniProt P49419)	-0.15	0.49	-0.0466	0.0998
AIMP2 C143 (UniProt Q13155)	0.162	-0.226		
AKAP1 C389 (UniProt Q92667)	-0.0759	-0.107		
ANKHD1 C535	-0.326	-0.19		
ALDH9A1 C267 (UniProt P49189)	-0.417	-0.273		
ACLY C1040 (UniProt P53396)	0.0339	0.0284		
AFTPH C511 (UniProt Q6ULP2)	-0.465	-0.18		
ADCY9 C1204 (UniProt O60503)	-0.137	-0.0342		
ALDH9A1 C355 (UniProt P49189)	-0.188	-0.235		
AHCYL2 C187 (UniProt Q96HN2)	-0.249	-0.00824		

Some values from the results shown.
log2 mean competition ratio ([1]; 50 µM), ACLY C1040 (UniProt P53396) is entered as 0.0339
log2 mean competition ratio ([1]; 200 µM), ACOT8 C302 (UniProt O14734) is entered as 0.336

Additional entries follow.

Target	log2 mean competition ratio ([1]; 50 µM)	log2 mean competition ratio ([1]; 200 µM)	log2 mean competition ratio ([2]; 50 µM)	log2 mean competition ratio ([2]; 200 µM)
AKAP17A C95 (UniProt Q02040)	-0.0447	0.00622		
AMOT C862 (UniProt Q4VCS5)	-0.0829	0.105		
AMOT C781 (UniProt Q4VCS5)	-0.0906	0.051		
ADIPOR2 C96 (UniProt Q86V24)	-0.212	-0.0615	0.193	-0.00861
AKAP9 C870 (UniProt Q99996)	0.173	-0.463		
ALKBH2 C67 (UniProt Q6NS38)	-0.191	-0.165	-0.355	-0.296
AKAP1 C147 (UniProt Q92667)	-0.0397	-0.000529	-0.256	0.151
AKAP9 C1367 (UniProt Q99996)	-0.121	-0.228	-0.233	-0.245
ALDH1B1 C386 (UniProt P30837)	-0.0717	0.422		
AHNAK C1833 (UniProt Q09666)	-0.128	-0.281		
AKAP9 C2571 (UniProt Q99996)	0.188	0.354		
ANAPC4 C697 (UniProt Q9UJX5)	-0.193	-0.133	-0.198	-0.191
AIFM1 C256 (UniProt O95831)	-0.0688	-0.0416		
ADD1 C525 (UniProt P35611)	0.372	0.38		
ADCY3 C463 (UniProt O60266)	-0.078	0.564	-0.428	0.0267
AKAP12 C1139 (UniProt Q02952)	-0.202	-0.392	0.484	-0.298
